Assay results as given in article PMC4627331.
No constants are given. Whether binding was seen depends on the method and setting. Binding seen in cells or lysates may run through a third protein. Some results given as binding are weak or reduced against the parent protein; the word gives no strength.

By UniProt entry, the sequences of proteins in these tests, tags left out.
UniProt Q9ULP0: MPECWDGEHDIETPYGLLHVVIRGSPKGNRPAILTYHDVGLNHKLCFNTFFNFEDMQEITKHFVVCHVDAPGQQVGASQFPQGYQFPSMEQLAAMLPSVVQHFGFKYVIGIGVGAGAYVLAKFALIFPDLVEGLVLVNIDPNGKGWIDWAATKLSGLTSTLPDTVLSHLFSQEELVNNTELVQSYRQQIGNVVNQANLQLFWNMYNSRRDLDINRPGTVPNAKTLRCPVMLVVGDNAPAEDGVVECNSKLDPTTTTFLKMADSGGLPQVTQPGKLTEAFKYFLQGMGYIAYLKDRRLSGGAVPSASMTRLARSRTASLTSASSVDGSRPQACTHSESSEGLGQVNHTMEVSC

Target: N-Myc down regulated gene 4 (NDRG4) (human (endogenous in IOMM-Lee and CH-157 MN)) (UniProt Q9ULP0)
Assay: co-IP; 400 ug lysate of untransduced, control shRNA and shNDRG4 transduced IOMM-Lee and CH-157 MN cells; NDRG4 antibody (2 ug) overnight at 4°C, protein G magnetic beads; immunoblotted for p53 and NDRG4

binding: binds
Substance: p53 (from UniProt P04637 1-393)
